Measured values from PubChem BioAssay AID2685 (National Center for Advancing Translational Sciences (NCATS), 2010).
This is one part of the list. These are further read-outs of the screen, such as a control signal, another cell line or another target. No call is given for them. The list favours compounds with an active or inconclusive main result. The note in brackets gives the kind of curve behind each potency; many fits are weak.

Assay: qHTS Assay for Lipid Storage Modulators in Drosophila S3 Cells;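 on cell number change: cells counted by Cell Tracker Red CMTPX staining in the red channel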
Details: BODIPY lipid droplet fluorescence, 18-24 h; for cell number change: measured here: cell count max response, cells fed with added oleic acid
How it was run: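 Laser-scanning cytometry quantifies lipid droplet accumulation (500–530 nm total intensity; droplet/cell object ratio) in oleic acid-fed (400 uM added) Drosophila S3 cells treated with a concentration series. 20 uM Triacsin C defined 100% inhibition.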

[1] = measured here: lipid fluorescence (Fed channel) AC50, cells fed with added oleic acid
[2] = measured here: cell number channel AC50, cells fed with added oleic acid

Row | Compound | cell number change | AC50 [1] | AC50 [2]
1 | CCOc1ccc(C2C(C#N)=C(N)N(N(C)C)C3=C2C(=O)CCC3)cc1 (stereo not drawn) | 9.72% | – | –
2 | CN(CC(=O)Nc1ccc(Cl)cc1)C(=O)Cc1c(F)cccc1Cl | 16.2% | – | –
3 | CC(C)c1ccccc1NCC(=O)N1CCN(Cc2ccccc2)CC1 | 2.84% | – | –
4 | CC(C)OCC1CO1 (stereo not drawn) | 15.7% | 0.92 µM [rising, partial curve] | –
5 | Cc1ccc(OCC(=O)N/N=C2/SCC(=O)N2Cc2ccccc2)cc1 | 14.7% | 0.00461 µM [rising, full curve, poor fit] | –
6 | COc1ccccc1C(=O)NCCC(=O)NNC(=O)Cn1ccc(C(F)(F)F)n1 | 7.47% | – | –
7 | Cc1cccc(NS(=O)(=O)c2cc(NC(=O)CC(=O)c3ccc([N+](=O)[O-])cc3)ccc2C)c1 | -46.1% | 5.8 µM [falling, full curve] | 1.46 µM [falling, full curve]
8 | COc1ccc(N(CC(=O)NCCc2ccc(S(N)(=O)=O)cc2)S(=O)(=O)c2c(C)noc2C)cc1 | -4.72% | 6.51 µM [rising, single point] | –
9 | CCCc1nn(C)c2c(=O)[nH]c(-c3cc(S(=O)(=O)Nc4ccc(NC(C)=O)cc4)ccc3OCC)nc12 | 0.543% | 0.231 µM [rising, full curve, poor fit] | –
10 | COc1ccccc1Oc1coc2cc(O)ccc2c1=O | -9.43% | 0.146 µM [rising, full curve] | –
11 | O=C(Nc1ccccc1N1CCCCC1)c1ccc(-c2cccc(Cl)c2)o1 | 42.6% | 25.9 µM [falling, partial curve, poor fit] | 16.4 µM [rising, single point]
12 | O=c1c(-c2cccc3ccccc23)[n+]([O-])c2ccccc2n1O | -10.3% | 6.51 µM [rising, partial curve, poor fit] | 6.51 µM [rising, single point]
13 | Cc1nc2ccc(NC(=O)c3ccc(Cl)c(NC(=O)c4cccs4)c3)cc2s1 | 6.06% | 4.11 µM [rising, single point] | –
14 | CCCCn1nnnc1SCC(=O)Nc1ccc(F)cc1 | 86.9% | – | 11.6 µM [rising, partial curve]
15 | Cc1nn(Cc2cccc(C(=O)Nc3ccn(Cc4c(F)c(F)cc(F)c4F)n3)c2)c(C)c1[N+](=O)[O-] | 23.3% | 29.1 µM [rising, single point] | 1.64 µM [rising, full curve, poor fit]
16 | CC(C)Sc1cc(N2CCOCC2)nc(-c2ccccc2)n1 | -7.35% | 7.31 µM [rising, partial curve] | 2.31 µM [rising, partial curve]

A draw from above in order of length of the SMILES, rising:
Row | Compound | cell number change | AC50 [1] | AC50 [2]
16 | CC(C)Sc1cc(N2CCOCC2)nc(-c2ccccc2)n1 | -7.35% | 7.31 µM [rising, partial curve] | 2.31 µM [rising, partial curve]
1 | CCOc1ccc(C2C(C#N)=C(N)N(N(C)C)C3=C2C(=O)CCC3)cc1 (stereo not drawn) | 9.72% | – | –
7 | Cc1cccc(NS(=O)(=O)c2cc(NC(=O)CC(=O)c3ccc([N+](=O)[O-])cc3)ccc2C)c1 | -46.1% | 5.8 µM [falling, full curve] | 1.46 µM [falling, full curve]
